# In paper PMC9492413:
# Protein sequences, listed by entry. Tags and fused reporters are not part of them.
# UniProt Q969H0: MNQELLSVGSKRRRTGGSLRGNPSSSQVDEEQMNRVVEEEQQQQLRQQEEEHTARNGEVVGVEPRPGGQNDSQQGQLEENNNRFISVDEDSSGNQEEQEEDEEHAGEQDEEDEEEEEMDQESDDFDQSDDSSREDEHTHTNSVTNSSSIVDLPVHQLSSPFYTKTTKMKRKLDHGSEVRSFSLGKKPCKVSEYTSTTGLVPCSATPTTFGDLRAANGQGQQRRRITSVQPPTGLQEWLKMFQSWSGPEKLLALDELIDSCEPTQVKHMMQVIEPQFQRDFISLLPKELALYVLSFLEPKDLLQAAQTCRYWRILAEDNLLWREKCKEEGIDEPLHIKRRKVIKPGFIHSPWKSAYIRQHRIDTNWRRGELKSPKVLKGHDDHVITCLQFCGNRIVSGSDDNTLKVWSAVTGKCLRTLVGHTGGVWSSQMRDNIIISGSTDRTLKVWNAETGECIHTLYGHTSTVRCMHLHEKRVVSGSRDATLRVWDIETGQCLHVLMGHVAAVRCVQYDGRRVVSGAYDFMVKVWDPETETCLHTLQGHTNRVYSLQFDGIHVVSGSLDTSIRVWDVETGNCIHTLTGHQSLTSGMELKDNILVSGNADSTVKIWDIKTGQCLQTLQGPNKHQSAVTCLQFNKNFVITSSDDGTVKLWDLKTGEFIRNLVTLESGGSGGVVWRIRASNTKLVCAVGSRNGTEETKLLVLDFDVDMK
# UniProt O96019: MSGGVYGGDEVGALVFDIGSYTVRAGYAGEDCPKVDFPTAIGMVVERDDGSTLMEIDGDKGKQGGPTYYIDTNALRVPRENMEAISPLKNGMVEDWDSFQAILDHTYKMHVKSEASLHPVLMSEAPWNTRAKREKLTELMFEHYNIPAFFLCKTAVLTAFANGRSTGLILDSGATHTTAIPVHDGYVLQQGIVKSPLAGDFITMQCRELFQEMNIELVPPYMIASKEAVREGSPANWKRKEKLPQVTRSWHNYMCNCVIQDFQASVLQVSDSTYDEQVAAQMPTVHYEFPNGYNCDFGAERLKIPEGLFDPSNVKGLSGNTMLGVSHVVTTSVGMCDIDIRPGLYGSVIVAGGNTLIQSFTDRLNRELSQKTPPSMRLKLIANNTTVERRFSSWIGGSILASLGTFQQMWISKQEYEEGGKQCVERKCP
# These are yes or no findings as the source states them, for the method shown. Binding seen in cells or lysates may run through a third protein. Some binding calls cover weakened binding; strength is not graded here.
# How the values were obtained:
# [1] = target: Flag-tagged FBXW7 (F-box and WD repeat domain-containing 7) (UniProt Q969H0); experiment: co-IP; MHCC-97H and Huh7 cells; NP-40 lysis buffer extracts incubated with anti-FBXW7 or anti-ACTL6A antibody at 4°C overnight, protein A/G beads 4 h at 4°C, Western blot
# [2] = target: Actin-like 6A (ACTL6A) (human (endogenous in MHCC-97H and Huh7)) (UniProt O96019); experiment: as above
binding [1],binding [2],Substance
binds,,Actin-like 6A (ACTL6A) (from UniProt O96019 1-429)
,binds,Flag-tagged FBXW7 (F-box and WD repeat domain-containing 7) (from UniProt Q969H0 1-707)
